Measurements as given in patent US20170100458A1.
No constants are given. Whether binding was seen depends on the method and setting. Binding seen in cells or lysates may run through a third protein. Some binding calls cover weakened binding; strength is not graded here.

The chains behind the UniProt entries cited, without tags or fusion partners. Residues count along the entry.
UniProt P09405, residues 2-707: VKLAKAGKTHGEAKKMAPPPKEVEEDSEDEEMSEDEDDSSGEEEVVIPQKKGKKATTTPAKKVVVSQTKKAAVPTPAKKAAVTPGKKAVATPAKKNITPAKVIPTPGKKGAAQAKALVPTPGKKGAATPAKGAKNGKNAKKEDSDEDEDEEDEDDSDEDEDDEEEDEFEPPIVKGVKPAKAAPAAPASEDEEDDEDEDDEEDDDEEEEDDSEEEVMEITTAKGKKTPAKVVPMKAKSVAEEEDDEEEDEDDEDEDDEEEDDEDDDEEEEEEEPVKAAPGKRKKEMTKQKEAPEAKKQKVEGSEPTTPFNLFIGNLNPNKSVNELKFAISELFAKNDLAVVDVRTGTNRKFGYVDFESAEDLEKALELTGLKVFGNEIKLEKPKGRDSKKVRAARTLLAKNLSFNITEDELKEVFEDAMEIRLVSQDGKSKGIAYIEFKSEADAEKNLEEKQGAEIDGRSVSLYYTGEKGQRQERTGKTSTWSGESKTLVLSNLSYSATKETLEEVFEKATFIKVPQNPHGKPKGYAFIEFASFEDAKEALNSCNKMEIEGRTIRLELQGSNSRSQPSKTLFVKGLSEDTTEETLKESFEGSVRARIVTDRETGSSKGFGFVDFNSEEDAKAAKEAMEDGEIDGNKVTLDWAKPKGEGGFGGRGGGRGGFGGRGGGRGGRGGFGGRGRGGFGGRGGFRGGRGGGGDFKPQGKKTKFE
UniProt Q0VE82: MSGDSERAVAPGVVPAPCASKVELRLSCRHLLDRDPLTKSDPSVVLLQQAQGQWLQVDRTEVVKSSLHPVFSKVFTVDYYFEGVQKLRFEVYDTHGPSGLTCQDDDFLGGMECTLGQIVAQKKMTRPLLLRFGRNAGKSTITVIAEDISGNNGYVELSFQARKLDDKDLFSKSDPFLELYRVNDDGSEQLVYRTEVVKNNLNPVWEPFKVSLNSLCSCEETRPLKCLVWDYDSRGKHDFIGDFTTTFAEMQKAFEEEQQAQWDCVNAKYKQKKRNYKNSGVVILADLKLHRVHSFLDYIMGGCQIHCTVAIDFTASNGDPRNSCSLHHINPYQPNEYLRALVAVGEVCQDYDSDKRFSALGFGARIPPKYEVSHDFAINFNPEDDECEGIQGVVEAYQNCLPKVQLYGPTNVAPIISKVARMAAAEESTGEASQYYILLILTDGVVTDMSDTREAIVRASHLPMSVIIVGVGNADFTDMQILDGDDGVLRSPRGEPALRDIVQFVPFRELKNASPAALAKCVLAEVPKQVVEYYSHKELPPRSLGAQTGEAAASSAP

Biological target: Nucleolin (endogenous, MDPC-23 cells) (mouse) (UniProt P09405)
Experiment: co-immunoprecipitation from MDPC-23 cell lysates, western blot with anti-Nucleolin; immunofluorescence co-localization

binding: binds
Substance: Cpne7 (endogenous, mouse cells) (from UniProt Q0VE82 1-557)
